PubChem BioAssay AID1224828 | NIAID, 2016
The whole screen tested about 17,000 reagents; this is an unselected part. Of all reagents, 762 (4.5%) were called active. 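Active calls include both raised and lowered p65 entry, mostly lowered; wells with fewer than 50 cells lack a z-score.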 Raw values are not corrected between plates. Entries without a mark were called inactive.

Assay: 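Find genes required for NF-kappaB p65 moving into the nucleus after LPS in mouse macrophages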 (primary screen)
System: mouse RAW264.7 G9 macrophage reporter cells (GFP-p65, Tnf promoter-mCherry)
Knock-down reagent: siRNA pool against mouse genes, 100 nM
Timing: 2 days siRNA transfection, then 40 min LPS before fixation
Treatment: LPS (Salmonella minnesota R595) at 10 ng/ml
Read-out: 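Microscopy ratio of nuclear to perinuclear-ring GFP-p65 signal, scaled to the plate median; gene score is the average of two replicate robust z-scores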
Direction: p65 translocation robust z-score: higher = more nuclear NF-kappaB p65 after LPS than the plate median; nuclear/cytoplasmic p65 ratio: higher = more nuclear NF-kappaB p65
Active means: 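Called active when z exceeds 3.3 or falls under -1.56 (median of Tlr4 controls), giving activity score of at least 50; no calls for control wells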
Meaning of the calls: active = hit (p65 shift raised or lowered); inactive = no clear change

| gene | p65 translocation robust z-score | nuclear/cytoplasmic p65 ratio, rep 1 | nuclear/cytoplasmic p65 ratio, rep 2 | low cell count flag |
| --- | --- | --- | --- | --- |
| Col4a2 (GeneID 12827) | 0.12 | 1.49 | 1.39 | enough cells to score |
| Nuak1 (GeneID 77976) | -1.32 | 1.42 | 1.26 | enough cells to score |
| 4930583K01Rik (GeneID 67745) | – | 1.07 | 1.56 | fewer than 50 cells per well; well left out of scoring |
| Tmem41b (GeneID 233724) | 0.54 | 1.56 | 1.65 | enough cells to score |
| 2310022A10Rik (GeneID 66367) | – | 1.43 | 1.36 | fewer than 50 cells per well; well left out of scoring |
| Stac3 (GeneID 237611) | 1.18 | 1.55 | 1.75 | enough cells to score |
| Twf2 (GeneID 23999) | – | 1.74 | 1.16 | fewer than 50 cells per well; well left out of scoring |
| Uvrag (GeneID 78610) | 1.16 | 1.7 | 1.76 | enough cells to score |
| Tpsab1 (GeneID 100503895) | 0.49 | 1.89 | 1.53 | enough cells to score |
| Patl1 (GeneID 225929) | -0.33 | 1.58 | 1.53 | enough cells to score |
| Rnf25 (GeneID 57751) | 0.22 | 1.45 | 1.24 | enough cells to score |
| Mydgf (GeneID 28106) | 0.84 | 1.66 | 1.7 | enough cells to score |
| Gpr135 (GeneID 238252) | 0.52 | 1.56 | 1.39 | enough cells to score |
| Clstn3 (GeneID 232370) | 0.46 | 1.55 | 1.42 | enough cells to score |
| AA986860 (GeneID 212439) | 1.27 | 1.59 | 1.66 | enough cells to score |
| Tmem79 (GeneID 71913) | – | 1.33 | 1.51 | fewer than 50 cells per well; well left out of scoring |
| Lrrc24 (GeneID 378937) | 0.06 | 1.34 | 1.5 | enough cells to score |
| Rgs13 (GeneID 246709) | – | 1.36 | 1.25 | fewer than 50 cells per well; well left out of scoring |
| Tnfaip2 (GeneID 21928) | 0.02 | 1.63 | 1.41 | enough cells to score |
| Or6x1 (GeneID 258608) | 0.27 | 1.48 | 1.39 | enough cells to score |
| Bspry (GeneID 192120) | – | 1.39 | 1.56 | fewer than 50 cells per well; well left out of scoring |
| Sfmbt2 (GeneID 353282) | 0.04 | 1.51 | 1.26 | enough cells to score |
| Gabra2 (GeneID 14395) | -0.55 | 1.33 | 1.33 | enough cells to score |
| Arl6ip4 (GeneID 65105) | -1.16 | 1.52 | 1.37 | enough cells to score |

Copied from the list.
AA986860 (GeneID 212439), nuclear/cytoplasmic p65 ratio, rep 1 → 1.59
Mydgf (GeneID 28106), nuclear/cytoplasmic p65 ratio, rep 1 → 1.66
For “p65 translocation robust z-score”, Gpr135 (GeneID 238252) reads 0.52
